Test results published in article PMC7826256.
Results from cells or extracts need not show a direct contact. For some of these results: A negative result means that nothing was seen under these conditions. At least one verdict rests on a figure or table, not on a statement of the authors. The exact form of at least one protein or probe is not confirmed. For some of these results: Where a protein sequence is shown, tags need not be part of it. For some of these results: A weaker result is weaker than the reference pair of the same experiment.

By UniProt entry, the sequences of proteins in these tests, tags left out. Where a name states a change or a piece, a line headed by the entry shows the natural chain unless it says otherwise. Residues count along the entry.
UniProt P51991: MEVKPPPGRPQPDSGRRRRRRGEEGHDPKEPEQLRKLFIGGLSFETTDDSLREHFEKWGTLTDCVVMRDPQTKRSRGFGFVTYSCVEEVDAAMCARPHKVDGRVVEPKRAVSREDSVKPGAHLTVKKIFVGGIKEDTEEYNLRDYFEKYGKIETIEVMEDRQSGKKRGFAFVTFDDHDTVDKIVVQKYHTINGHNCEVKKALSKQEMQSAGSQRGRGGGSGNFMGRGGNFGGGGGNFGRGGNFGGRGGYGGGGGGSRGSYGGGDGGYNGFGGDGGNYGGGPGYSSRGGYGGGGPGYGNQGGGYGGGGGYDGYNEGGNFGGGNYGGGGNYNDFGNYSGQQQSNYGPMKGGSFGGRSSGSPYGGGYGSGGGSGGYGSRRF
UniProt P12956, 2-609: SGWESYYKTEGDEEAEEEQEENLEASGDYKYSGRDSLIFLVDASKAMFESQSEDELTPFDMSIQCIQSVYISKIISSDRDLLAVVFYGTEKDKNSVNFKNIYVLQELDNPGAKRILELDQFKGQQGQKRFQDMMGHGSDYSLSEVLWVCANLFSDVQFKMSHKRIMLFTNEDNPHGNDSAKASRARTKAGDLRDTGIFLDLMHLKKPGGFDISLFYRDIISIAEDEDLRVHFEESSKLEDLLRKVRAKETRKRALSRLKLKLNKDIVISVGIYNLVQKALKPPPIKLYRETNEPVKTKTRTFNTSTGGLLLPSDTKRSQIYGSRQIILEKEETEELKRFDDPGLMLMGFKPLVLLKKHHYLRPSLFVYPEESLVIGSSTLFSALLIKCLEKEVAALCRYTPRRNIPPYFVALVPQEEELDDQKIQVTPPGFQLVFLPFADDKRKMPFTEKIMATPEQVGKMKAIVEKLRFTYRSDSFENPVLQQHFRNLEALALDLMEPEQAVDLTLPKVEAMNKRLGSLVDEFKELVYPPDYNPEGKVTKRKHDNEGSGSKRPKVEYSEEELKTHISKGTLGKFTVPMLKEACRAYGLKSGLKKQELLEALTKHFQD
UniProt P13010, 2-732: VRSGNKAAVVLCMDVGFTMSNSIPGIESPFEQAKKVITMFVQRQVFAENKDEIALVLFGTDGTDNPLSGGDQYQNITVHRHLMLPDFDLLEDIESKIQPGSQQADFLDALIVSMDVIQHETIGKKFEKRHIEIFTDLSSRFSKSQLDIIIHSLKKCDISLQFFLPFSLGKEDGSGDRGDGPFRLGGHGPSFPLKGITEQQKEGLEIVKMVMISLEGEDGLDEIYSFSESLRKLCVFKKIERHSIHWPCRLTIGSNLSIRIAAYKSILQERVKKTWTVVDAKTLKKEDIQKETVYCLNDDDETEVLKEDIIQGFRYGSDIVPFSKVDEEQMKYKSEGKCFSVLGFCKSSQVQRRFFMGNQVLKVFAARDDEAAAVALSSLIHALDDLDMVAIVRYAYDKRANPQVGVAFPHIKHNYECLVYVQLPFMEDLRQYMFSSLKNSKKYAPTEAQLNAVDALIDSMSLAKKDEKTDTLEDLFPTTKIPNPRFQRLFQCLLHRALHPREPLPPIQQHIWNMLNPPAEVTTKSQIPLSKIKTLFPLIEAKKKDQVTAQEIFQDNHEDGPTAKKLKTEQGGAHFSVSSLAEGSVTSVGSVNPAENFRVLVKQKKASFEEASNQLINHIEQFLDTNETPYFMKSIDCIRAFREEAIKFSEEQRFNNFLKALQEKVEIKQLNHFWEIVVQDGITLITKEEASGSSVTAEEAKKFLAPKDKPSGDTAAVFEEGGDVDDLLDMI
UniProt O00571, 2-662: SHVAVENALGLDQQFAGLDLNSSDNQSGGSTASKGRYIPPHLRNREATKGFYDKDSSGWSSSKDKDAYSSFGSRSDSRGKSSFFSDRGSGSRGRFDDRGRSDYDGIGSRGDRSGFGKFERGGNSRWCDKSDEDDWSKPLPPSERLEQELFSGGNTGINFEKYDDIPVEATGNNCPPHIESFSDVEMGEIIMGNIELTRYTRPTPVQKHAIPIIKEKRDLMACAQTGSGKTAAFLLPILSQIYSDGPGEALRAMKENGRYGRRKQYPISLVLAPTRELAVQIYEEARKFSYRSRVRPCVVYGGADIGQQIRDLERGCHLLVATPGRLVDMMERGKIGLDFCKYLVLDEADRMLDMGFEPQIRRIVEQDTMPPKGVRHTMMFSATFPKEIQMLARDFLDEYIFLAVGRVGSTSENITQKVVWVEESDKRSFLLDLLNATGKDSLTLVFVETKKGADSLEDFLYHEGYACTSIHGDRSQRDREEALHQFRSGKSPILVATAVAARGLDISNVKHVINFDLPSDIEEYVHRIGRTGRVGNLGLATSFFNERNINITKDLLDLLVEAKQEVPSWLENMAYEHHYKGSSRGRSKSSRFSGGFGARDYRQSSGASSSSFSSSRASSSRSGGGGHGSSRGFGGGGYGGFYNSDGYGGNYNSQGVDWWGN

Assays:
Experiment in all cases: pull-down + LC-MS
Settings in all cases: Oligos folded in 20 mM phosphate pH 7.4, 150 pmol on streptavidin beads, 25 ug 93T449 nuclear extract, 4 C, 2-3 h, protein in an extract
hnRNP A3 = hnRNP A3 (UniProt P51991)
EWS = molecular target: T1, EWS (UniProt Q01844)
T1 sequence (looked up, limits assumed): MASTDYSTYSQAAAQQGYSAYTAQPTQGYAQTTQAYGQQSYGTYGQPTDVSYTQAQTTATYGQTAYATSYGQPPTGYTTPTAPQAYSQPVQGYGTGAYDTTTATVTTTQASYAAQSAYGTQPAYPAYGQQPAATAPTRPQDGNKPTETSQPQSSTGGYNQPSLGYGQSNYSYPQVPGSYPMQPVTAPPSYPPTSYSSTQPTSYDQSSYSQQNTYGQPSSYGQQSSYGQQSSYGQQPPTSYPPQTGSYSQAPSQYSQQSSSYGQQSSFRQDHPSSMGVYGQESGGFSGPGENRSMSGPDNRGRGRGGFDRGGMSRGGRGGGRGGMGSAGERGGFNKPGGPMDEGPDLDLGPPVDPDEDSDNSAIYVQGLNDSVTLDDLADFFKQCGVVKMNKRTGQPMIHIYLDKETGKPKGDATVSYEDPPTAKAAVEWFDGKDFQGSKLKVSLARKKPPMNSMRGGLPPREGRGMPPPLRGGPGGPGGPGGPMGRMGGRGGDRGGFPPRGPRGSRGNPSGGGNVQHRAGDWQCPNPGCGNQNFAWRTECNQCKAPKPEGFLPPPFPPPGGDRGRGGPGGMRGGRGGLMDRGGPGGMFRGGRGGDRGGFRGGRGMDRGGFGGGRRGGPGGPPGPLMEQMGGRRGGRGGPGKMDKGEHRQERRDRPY

hnRNP F = molecular target: T2, hnRNP F (UniProt P52597)
T2 sequence (looked up, limits assumed): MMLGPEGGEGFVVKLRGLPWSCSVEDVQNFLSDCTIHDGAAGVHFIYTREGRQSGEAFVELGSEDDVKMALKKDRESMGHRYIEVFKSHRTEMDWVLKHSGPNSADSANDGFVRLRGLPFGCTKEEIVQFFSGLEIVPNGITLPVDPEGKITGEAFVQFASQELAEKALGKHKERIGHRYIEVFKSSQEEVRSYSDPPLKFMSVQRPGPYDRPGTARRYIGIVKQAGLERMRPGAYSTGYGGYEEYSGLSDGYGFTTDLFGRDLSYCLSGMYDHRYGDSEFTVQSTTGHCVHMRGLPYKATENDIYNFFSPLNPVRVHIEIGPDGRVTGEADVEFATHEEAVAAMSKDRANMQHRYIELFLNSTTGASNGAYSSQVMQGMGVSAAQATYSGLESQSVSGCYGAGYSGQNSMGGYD

XRCC6 (Ku70) = XRCC6 (Ku70) (UniProt P12956)
hnRNP Q = molecular target: T3, hnRNP Q (UniProt O60506)
T3 sequence (looked up, limits assumed): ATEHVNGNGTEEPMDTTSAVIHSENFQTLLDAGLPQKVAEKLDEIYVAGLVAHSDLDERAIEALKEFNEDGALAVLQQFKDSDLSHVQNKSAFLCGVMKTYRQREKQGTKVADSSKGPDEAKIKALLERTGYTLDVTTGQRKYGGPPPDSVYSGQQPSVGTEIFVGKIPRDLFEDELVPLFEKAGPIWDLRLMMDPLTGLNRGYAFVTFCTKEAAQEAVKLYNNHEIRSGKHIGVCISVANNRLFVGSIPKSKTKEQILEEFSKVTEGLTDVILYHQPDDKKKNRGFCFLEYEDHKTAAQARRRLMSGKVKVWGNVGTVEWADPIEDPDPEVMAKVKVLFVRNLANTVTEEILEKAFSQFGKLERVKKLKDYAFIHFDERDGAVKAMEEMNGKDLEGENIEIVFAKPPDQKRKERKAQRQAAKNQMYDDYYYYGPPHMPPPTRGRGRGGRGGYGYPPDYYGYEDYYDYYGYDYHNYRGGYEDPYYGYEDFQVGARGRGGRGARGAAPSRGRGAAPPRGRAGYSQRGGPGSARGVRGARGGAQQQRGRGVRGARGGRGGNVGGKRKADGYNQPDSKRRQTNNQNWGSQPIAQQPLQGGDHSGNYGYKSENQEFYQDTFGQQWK

ACBL = test system: ACBL
XRCC5 (Ku80) = XRCC5 (Ku80) (UniProt P13010)
hnRNP H3 = molecular target: T4, hnRNP H3 (UniProt P31942)
T4 sequence (looked up, limits assumed): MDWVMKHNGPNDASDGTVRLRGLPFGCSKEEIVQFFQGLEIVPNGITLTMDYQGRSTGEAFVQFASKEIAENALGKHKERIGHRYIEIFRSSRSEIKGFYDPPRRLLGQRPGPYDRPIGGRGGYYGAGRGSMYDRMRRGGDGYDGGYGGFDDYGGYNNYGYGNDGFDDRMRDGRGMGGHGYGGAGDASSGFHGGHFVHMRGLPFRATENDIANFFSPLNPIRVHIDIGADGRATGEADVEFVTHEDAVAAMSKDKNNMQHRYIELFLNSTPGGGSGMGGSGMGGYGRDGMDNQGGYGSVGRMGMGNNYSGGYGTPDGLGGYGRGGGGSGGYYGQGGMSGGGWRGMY

DDX3X = DDX3X (UniProt O00571)
[1] = Mascot score 57, label: 5' biotin (BtnTg), folded or branched DNA
[2] = not found on control, label: 5' biotin, single-stranded DNA
[3] = also found, target score at least double, label: 5' biotin, single-stranded DNA

“AAAAACCCCAGTCCCGCCCAGGCCACGCCTCCCAAAAA [C-ss-biot]”: binds (hnRNP A3; similar Mascot score as on Mdm2-G4, label: 5' biotin, single-stranded DNA).
“TGGGGGCTCGGGGCGCGGGGCGCGGGGCATGGGGC [Mdm2-G4-biot]”: binds (EWS; Mascot score 28, label: 5' biotin (BtnTg), folded or branched DNA); binds (hnRNP A3; Mascot score 125, label: 5' biotin (BtnTg), folded or branched DNA); binds (hnRNP F; [1]). “TGGGGGCTCGGGGCGCGGGGCGCGGGGCATGGGGC [Mdm2-G4-biot]”: binds (XRCC6 (Ku70); Mascot score 89, label: 5' biotin (BtnTg), folded or branched DNA); binds (hnRNP Q; Mascot score 24, label: 5' biotin (BtnTg), folded or branched DNA); binds (ACBL; Mascot score 123, label: 5' biotin (BtnTg), folded or branched DNA). “TGGGGGCTCGGGGCGCGGGGCGCGGGGCATGGGGC [Mdm2-G4-biot]”: binds (XRCC5 (Ku80); [1]); binds (hnRNP H3; Mascot score 22, label: 5' biotin (BtnTg), folded or branched DNA); binds (DDX3X; Mascot score 29, label: 5' biotin (BtnTg), folded or branched DNA).
“TTTTTGGAGTCGTGTCGCGTGTCGAGCGTGTGTAGTGGTTTTT [G-ss-biot]”: no binding (EWS; [2]); no binding (hnRNP A3; not listed as found, label: 5' biotin, single-stranded DNA); no binding (hnRNP F; [2]). “TTTTTGGAGTCGTGTCGCGTGTCGAGCGTGTGTAGTGGTTTTT [G-ss-biot]”: binds more weakly (XRCC6 (Ku70); [3]); binds more weakly (hnRNP Q; [3]); no binding (ACBL; [2]). “TTTTTGGAGTCGTGTCGCGTGTCGAGCGTGTGTAGTGGTTTTT [G-ss-biot]”: binds more weakly (XRCC5 (Ku80); [3]); no binding (hnRNP H3; [2]); no binding (DDX3X; [2]).
